The supplement of paper PMC12819154, “High-throughput peptide-centric local stability assay extends protein–ligand identification to membrane proteins, tissues and bacteria” (Nature Structural & Molecular Biology, 2025)
The other results are listed elsewhere or left out. Most entries show no effect beyond the scatter of the controls.

The chains behind the UniProt entries cited, without tags or fusion partners. Where a name states a change or a piece, a line headed by the entry shows the natural chain unless it says otherwise.
UniProt Q8NC44: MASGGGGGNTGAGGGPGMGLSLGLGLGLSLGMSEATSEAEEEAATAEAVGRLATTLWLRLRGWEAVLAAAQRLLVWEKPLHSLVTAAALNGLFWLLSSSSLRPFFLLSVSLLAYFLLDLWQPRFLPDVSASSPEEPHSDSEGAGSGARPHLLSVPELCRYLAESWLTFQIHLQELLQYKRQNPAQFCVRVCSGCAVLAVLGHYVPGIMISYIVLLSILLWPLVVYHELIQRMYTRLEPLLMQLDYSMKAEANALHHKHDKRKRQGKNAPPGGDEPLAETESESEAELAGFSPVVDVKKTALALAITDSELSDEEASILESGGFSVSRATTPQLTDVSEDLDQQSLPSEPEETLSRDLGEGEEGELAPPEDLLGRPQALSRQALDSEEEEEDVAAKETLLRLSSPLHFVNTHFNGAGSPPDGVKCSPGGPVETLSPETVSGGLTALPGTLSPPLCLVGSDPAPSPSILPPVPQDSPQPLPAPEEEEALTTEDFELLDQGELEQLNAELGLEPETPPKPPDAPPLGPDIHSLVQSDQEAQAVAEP
UniProt Q8ND24: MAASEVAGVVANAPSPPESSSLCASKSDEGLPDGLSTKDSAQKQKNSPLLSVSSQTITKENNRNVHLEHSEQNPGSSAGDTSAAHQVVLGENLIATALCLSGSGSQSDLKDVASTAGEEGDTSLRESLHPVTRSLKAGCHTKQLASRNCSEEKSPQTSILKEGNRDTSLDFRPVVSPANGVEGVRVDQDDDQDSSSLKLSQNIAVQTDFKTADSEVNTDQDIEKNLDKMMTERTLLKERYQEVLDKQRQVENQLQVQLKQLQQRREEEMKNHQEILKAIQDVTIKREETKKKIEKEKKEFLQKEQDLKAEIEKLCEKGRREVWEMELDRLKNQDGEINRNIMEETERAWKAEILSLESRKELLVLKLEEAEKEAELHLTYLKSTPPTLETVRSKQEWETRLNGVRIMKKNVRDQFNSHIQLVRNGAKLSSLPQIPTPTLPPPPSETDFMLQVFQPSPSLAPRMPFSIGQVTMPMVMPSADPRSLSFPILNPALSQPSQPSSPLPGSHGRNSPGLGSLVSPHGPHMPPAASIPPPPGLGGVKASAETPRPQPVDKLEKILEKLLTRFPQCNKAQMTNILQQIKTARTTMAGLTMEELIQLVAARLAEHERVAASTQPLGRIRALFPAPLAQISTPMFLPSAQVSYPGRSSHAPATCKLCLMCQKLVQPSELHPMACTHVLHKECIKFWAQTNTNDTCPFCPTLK
UniProt Q8TAG9: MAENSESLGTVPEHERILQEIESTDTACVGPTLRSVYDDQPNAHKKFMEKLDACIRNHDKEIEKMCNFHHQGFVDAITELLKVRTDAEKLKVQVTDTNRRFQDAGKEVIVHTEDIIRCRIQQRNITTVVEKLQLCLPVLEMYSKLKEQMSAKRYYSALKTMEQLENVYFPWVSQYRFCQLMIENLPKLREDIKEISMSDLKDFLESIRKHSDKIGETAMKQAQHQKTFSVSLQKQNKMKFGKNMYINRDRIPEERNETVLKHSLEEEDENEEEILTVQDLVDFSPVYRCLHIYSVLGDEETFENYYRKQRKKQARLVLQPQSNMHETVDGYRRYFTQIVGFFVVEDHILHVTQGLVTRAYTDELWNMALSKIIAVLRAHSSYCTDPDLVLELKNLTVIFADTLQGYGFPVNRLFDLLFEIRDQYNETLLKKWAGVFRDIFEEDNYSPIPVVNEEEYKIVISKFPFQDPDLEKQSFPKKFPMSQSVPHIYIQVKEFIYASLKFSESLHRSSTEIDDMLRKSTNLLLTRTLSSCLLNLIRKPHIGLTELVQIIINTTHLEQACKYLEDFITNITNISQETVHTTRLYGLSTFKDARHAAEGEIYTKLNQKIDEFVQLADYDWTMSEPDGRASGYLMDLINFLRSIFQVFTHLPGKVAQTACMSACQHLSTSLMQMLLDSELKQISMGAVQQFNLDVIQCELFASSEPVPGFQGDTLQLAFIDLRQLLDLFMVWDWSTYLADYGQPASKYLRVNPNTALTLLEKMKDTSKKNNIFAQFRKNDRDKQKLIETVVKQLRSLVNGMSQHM
UniProt Q8TB37: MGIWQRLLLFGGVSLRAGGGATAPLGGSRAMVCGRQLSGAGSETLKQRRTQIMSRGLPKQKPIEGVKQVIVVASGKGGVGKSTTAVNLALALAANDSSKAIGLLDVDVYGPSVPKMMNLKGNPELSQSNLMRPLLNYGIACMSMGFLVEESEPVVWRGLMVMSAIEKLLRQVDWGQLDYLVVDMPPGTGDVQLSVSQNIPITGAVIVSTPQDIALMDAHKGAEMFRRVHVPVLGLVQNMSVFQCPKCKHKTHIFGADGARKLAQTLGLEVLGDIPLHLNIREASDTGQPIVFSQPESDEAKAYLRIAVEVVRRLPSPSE
UniProt Q8NCY6: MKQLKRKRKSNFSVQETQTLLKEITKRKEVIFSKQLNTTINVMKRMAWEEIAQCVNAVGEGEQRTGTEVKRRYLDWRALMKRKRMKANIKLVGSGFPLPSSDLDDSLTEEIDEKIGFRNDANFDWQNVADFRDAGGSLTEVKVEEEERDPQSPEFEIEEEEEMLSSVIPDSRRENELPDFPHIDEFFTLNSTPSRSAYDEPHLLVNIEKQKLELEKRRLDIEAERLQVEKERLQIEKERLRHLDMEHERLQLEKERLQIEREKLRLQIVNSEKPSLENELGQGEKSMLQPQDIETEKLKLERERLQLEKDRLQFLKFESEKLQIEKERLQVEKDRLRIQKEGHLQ
UniProt Q8NDL9: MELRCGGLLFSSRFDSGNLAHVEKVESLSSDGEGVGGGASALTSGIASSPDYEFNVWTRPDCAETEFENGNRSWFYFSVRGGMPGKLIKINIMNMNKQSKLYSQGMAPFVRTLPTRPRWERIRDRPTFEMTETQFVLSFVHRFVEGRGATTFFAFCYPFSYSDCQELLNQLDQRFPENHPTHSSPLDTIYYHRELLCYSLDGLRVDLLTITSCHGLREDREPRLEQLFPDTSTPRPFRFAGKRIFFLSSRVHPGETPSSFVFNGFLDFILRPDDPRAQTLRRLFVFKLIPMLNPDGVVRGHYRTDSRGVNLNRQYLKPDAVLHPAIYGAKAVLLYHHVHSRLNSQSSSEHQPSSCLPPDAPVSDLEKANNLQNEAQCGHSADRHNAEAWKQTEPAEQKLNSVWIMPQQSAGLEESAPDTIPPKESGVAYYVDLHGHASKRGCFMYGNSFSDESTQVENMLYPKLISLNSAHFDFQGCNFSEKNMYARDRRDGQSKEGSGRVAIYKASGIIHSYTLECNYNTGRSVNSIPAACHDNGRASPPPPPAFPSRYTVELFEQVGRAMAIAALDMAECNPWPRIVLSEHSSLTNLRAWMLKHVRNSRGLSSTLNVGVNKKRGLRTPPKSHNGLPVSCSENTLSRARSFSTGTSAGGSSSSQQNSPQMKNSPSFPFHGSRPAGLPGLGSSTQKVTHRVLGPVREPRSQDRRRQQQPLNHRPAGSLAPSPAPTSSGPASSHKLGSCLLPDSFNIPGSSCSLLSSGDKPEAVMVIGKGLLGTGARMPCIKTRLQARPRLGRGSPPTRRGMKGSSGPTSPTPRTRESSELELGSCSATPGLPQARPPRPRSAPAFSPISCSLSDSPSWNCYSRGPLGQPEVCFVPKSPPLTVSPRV
UniProt Q8NFW8: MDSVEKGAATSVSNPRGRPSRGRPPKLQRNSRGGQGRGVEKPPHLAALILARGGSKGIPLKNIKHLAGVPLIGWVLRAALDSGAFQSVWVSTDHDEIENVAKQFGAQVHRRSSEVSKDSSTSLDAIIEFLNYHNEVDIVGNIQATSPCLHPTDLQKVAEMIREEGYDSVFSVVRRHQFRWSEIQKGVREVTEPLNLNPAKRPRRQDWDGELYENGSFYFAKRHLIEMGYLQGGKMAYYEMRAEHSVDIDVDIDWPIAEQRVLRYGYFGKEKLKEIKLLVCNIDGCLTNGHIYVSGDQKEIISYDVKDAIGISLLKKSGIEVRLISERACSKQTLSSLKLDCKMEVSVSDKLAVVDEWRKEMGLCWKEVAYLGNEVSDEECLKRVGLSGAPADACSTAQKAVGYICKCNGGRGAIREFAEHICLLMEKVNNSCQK
UniProt Q8N573: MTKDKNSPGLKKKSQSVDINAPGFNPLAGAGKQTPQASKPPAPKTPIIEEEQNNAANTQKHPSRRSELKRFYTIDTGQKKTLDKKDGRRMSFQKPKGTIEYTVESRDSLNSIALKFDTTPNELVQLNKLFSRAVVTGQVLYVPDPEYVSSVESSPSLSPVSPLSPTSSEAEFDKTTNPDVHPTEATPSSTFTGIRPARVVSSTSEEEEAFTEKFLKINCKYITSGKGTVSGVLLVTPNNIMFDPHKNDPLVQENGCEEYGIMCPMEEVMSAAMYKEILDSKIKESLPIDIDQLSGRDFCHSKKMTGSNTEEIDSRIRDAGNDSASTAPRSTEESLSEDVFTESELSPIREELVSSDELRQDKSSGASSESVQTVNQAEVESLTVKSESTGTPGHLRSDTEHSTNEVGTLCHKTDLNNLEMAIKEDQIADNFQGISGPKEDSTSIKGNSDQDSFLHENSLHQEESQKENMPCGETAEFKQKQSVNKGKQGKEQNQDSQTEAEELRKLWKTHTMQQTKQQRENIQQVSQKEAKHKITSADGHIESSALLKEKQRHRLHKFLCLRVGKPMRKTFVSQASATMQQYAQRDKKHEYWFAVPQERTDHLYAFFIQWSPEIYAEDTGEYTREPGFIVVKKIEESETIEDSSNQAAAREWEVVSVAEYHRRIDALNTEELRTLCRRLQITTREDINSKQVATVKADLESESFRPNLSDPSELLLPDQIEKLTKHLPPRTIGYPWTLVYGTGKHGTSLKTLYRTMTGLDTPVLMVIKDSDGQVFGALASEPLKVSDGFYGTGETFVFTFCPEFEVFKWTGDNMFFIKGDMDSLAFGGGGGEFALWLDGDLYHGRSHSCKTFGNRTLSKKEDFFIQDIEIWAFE
UniProt Q8NBT2: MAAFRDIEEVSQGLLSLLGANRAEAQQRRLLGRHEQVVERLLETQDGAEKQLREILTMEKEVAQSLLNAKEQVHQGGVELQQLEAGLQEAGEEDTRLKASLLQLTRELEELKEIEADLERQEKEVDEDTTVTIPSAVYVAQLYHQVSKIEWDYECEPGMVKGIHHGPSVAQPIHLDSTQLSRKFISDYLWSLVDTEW
UniProt Q8NFH3: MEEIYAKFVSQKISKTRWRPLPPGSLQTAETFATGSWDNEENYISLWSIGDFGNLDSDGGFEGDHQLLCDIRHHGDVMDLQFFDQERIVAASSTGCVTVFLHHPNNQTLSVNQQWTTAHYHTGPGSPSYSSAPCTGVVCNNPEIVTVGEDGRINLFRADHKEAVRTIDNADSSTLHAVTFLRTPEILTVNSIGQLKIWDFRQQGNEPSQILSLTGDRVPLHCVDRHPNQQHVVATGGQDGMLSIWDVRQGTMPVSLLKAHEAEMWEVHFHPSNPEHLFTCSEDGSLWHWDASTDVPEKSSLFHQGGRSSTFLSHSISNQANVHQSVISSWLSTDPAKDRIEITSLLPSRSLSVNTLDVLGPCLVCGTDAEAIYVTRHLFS
UniProt Q8TBF4: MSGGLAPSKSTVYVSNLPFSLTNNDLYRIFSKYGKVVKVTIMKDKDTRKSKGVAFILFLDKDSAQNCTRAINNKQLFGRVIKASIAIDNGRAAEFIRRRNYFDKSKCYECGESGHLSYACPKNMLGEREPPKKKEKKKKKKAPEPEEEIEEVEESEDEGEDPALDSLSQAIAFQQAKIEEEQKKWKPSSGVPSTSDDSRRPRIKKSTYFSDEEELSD
UniProt Q8NF99: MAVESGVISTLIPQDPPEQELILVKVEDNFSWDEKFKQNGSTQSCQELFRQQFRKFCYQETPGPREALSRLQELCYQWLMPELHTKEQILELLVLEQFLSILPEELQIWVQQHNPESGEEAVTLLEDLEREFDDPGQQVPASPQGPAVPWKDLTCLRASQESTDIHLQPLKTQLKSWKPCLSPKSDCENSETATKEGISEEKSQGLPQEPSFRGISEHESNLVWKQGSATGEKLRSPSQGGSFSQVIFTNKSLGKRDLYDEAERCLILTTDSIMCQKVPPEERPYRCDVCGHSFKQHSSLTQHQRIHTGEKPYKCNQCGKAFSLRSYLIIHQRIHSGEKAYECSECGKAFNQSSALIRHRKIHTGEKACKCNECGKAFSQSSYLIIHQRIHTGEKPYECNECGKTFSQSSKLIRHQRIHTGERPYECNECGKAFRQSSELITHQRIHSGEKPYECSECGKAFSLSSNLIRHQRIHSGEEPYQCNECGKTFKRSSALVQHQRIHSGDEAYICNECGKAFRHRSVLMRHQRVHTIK
UniProt Q8N8N7: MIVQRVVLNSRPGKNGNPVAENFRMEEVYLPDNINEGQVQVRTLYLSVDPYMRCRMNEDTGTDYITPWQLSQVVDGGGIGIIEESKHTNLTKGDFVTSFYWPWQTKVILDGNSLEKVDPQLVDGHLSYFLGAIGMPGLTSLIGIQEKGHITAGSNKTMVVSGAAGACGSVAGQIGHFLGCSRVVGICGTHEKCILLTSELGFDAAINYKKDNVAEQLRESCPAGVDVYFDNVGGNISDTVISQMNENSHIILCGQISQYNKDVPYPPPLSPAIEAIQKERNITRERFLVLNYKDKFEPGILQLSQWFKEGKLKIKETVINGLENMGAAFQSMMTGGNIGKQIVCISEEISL

compound: CN[C@@H]1C[C@H]2O[C@@](C)([C@@H]1OC)n1c3ccccc3c3c4c(c5c6ccccc6n2c5c31)C(=O)NC4 [staurosporine]; assay: log2 fold change of tryptic peptide abundance, ligand vs vehicle (limited proteolysis) (log2 ratio); higher = more trypsin-susceptible (destabilized); settings: ligand concentration: 20 uM; sample: K562 cleared lysate; digestion: 4 min, 22 C (HT-PELSA RT4min, Orbitrap Astral)

Target	log2 fold change
UniProt Q8NC44 (peptide sequence: AEANALHHK, peptide start residue: 249)	0.0913
UniProt Q8NDZ2 (peptide sequence: EISLSEPAKPGSAHVQSR, peptide start residue: 402)	0.264
RNF214 (peptide sequence: SDEGLPDGLSTK, peptide start residue: 27) (UniProt Q8ND24)	0.11
UniProt Q8N9E0 (peptide sequence: ALAEFEEK, peptide start residue: 57)	-0.0379
EXOC6 (peptide sequence: EISMSDLK, peptide start residue: 194) (UniProt Q8TAG9)	0.571
NUBPL (peptide sequence: GLMVMSAIEK, peptide start residue: 158) (UniProt Q8TB37)	-0.223
SREK1IP1 (peptide sequence: AGCKKCGYPGHLTFECR, peptide start residue: 13) (UniProt Q8N9Q2)	-0.109
UHMK1 (peptide sequence: YGPVVSLLVPK, peptide start residue: 354) (UniProt Q8TAS1)	0.165
UniProt Q8NCY6 (peptide sequence: SAYDEPHLLVNIEK, peptide start residue: 196)	0.461
AGBL5 (peptide sequence: SHNGLPVSCSENTLSR, peptide start residue: 623) (UniProt Q8NDL9)	-0.127
PPTC7 (peptide sequence: LHTANLGDSGFLVVR, peptide start residue: 151) (UniProt Q8NI37)	0.619
CMAS (peptide sequence: GVEKPPHLAALILAR, peptide start residue: 38) (UniProt Q8NFW8)	0.136
CHCHD4 (peptide sequence: KPAEQAEETAPIEATATK, peptide start residue: 119) (UniProt Q8N4Q1)	-0.00616
UniProt Q8TAB5 (peptide sequence: SSSPEPACGTPR, peptide start residue: 124)	0.486
OXR1 (peptide sequence: KMTGSNTEEIDSR, peptide start residue: 303) (UniProt Q8N573)	-0.579
ZMIZ2 (peptide sequence: GYVQQGVYSR, peptide start residue: 102) (UniProt Q8NF64)	0.106
UniProt Q8TAM2 (peptide sequence: SEAAFPDHVDTQHLIK, peptide start residue: 517)	0.321
SPC24 (peptide sequence: HEQVVER, peptide start residue: 34) (UniProt Q8NBT2)	0.089
NUP43 (peptide sequence: TPEILTVNSIGQLK, peptide start residue: 183) (UniProt Q8NFH3)	-0.559
C12orf29 (peptide sequence: MPCVFVTEVK, peptide start residue: 11) (UniProt Q8N999)	-0.25
ZCRB1 (peptide sequence: SKCYECGESGHLSYACPK, peptide start residue: 105) (UniProt Q8TBF4)	-0.444
RNF10 (peptide sequence: VALEQQLAEEK, peptide start residue: 350) (UniProt Q8N5U6)	0.477
FAM160A2 (peptide sequence: SRRPSLGELLLR, peptide start residue: 855) (UniProt Q8N612)	0.799
NHLRC2 (peptide sequence: MVSVLPIFR, peptide start residue: 565) (UniProt Q8NBF2)	0.193
TAB3 (peptide sequence: EVDLLQSR, peptide start residue: 594) (UniProt Q8N5C8)	-0.193
FBXO30 (peptide sequence: FCPSIQGAK, peptide start residue: 569) (UniProt Q8TB52)	-0.165
UniProt Q8NF99 (peptide sequence: ASQESTDIHLQPLK, peptide start residue: 158)	0.0988
PTGR2 (peptide sequence: VVLNSRPGK, peptide start residue: 6) (UniProt Q8N8N7)	0.427

A stretch from the list above, as a working copy:
Target	log2 fold change
ZMIZ2 (peptide sequence: GYVQQGVYSR, peptide start residue: 102) (UniProt Q8NF64)	0.106
UniProt Q8TAM2 (peptide sequence: SEAAFPDHVDTQHLIK, peptide start residue: 517)	0.321
